Measurements reported in PubChem BioAssay AID1259254 (NCATS, 2017).
Purpose: 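Genome-wide screen for genes that prevent DNA re-replication in cancer cells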 (primary screen). Cells: human HCT116 colorectal cancer cells. Knock-down reagent: single siRNA against human genes. Time to read-out: 3 days. Detection: 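Imaged Hoechst DNA stain sorts each cell into a cycle phase by DNA amount; per plate, G2 fraction set to 0% for non-targeting and 100% for GMNN siRNA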. Scale: G2 robust z-score and G2 cells, % of GMNN control: higher = more G2 cells, more excess DNA replication; raw share of cells in G2: higher = larger share of cells with G2 DNA content. Active means: 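Active siRNAs have a G2 robust z of 5 or more median absolute deviations over the median, which in these data means about 38% or higher of GMNN control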.
Here is an unselected part of about 59,000 deposited reagents. In the full data, about 1,550 (2.6%) were called active. 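G2 share is only a proxy for re-replication; each gene was hit by three separate siRNAs, and active genes were retested.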 Raw values vary from plate to plate and are shown uncorrected. A number with no mark means an inactive call. Reagents against one gene are numbered here. The record does not give: the amount of reagent.

target	siRNA no.	G2 robust z-score	G2 cells, % of GMNN control	raw share of cells in G2 (%)
IFT52	1	0.0393	3.24	5.09
IFT52	2	-0.0432	2.66	5.56
IFT52	3	-0.841	-2.95	2.32
IQCF6	1	0.895	9.27	7.2
IQCF6	2	-0.989	-3.99	1.9
IQCF6	3	0.0404	3.25	4.22
ZNF428	1	0.422	5.94	4.73
ZNF428	2	0.518	6.61	6.67
ZNF428	3	9 (active)	66.3	24.1
S100A1	1	-1.09	-4.73	1.58
S100A1	2	-0.261	1.13	5.38
S100A1	3	0.664	7.64	5.88
NFKBIB	1	-0.478	-0.394	4.66
NFKBIB	2	0.143	3.97	4.55
NFKBIB	3	0.237	4.64	5.3
KDELR2	1	-0.147	1.93	4.47
KDELR2	2	1.2	11.4	11
KDELR2	3	-1.12	-4.89	3.57
NSD1	1	-0.641	-1.54	3.66
NSD1	2	-0.244	1.25	6.16
NSD1	3	8.89 (active)	65.5	27.5
EPS8L3	1	-0.814	-2.76	3.38
EPS8L3	2	-0.607	-1.3	4.03
EPS8L3	3	0.556	6.88	4.51
BCO1	1	-0.517	-0.673	3.99
BCO1	2	-0.0334	2.73	7.19
BCO1	3	-0.737	-2.22	2.95
MRPS26	1	-0.874	-3.18	3.19
MRPS26	2	2.98	23.9	15.3
MRPS26	3	-0.868	-3.14	1.87
